PubChem BioAssay AID1671195 | Yale University, 2021

Screen: 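Genes whose knockdown alters LDL uptake in liver cancer cells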 (primary screen)
Cells: human Huh7 hepatoma cells
Reagents: siRNA pool against human genes, 18 nM
Duration: about 2 to 2.5 days of knockdown, then 8 h LDL uptake
Challenge: DiI-labelled LDL at 30 µg/ml for 8 h, in lipoprotein-deficient serum medium
Measurement: 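Per-cell DiI-LDL intensity by automated imaging; well means scaled to the plate median and given as a robust z-score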
Direction: robust z-score: higher = more LDL uptake after knockdown
Call rule: 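a gene counts as active if at least two replicate z-scores exceed ±2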
The deposit covers about 22,000 reagents; this is an unselected part. Over the whole deposit, about 1,510 (6.9%) got an active call. 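Active includes knockdowns raising or lowering LDL uptake; positive z-scores mean more uptake, negative mean less.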 Entries without a mark were called inactive. No sequences are given here.

How did the screen score GABBR2?
robust z-score, replicate 1: -1.02; robust z-score, replicate 2: -1.81; robust z-score, replicate 3: -1.6

For RSPH4A, what does the deposit list?
robust z-score, replicate 1: -1.18; robust z-score, replicate 2: -0.481; robust z-score, replicate 3: -0.989

With KCNA5, what does the deposit list?
robust z-score, replicate 1: -0.284; robust z-score, replicate 2: 0.0655; robust z-score, replicate 3: -0.649

For CLDN6, what does the deposit list?
robust z-score, replicate 1: 1.69; robust z-score, replicate 2: 0.965; robust z-score, replicate 3: 1.61

How did the screen score ZAP70?
robust z-score, replicate 1: 0.826; robust z-score, replicate 2: 1.7; robust z-score, replicate 3: 0.556

What is on record for SNRNP35?
robust z-score, replicate 1: 0.256; robust z-score, replicate 2: 0.126; robust z-score, replicate 3: 0.698

What is on record for DOP1A?
robust z-score, replicate 1: 1.53; robust z-score, replicate 2: 0.257; robust z-score, replicate 3: 0.7

With NFE2L3, what does the deposit list?
robust z-score, replicate 1: 0.357; robust z-score, replicate 2: -0.076; robust z-score, replicate 3: 0.165

How did the screen score PTPRF?
robust z-score, replicate 1: 0.158; robust z-score, replicate 2: 0.333; robust z-score, replicate 3: 0.479

For DOC2A, how do the results read?
robust z-score, replicate 1: -1.36; robust z-score, replicate 2: -0.936; robust z-score, replicate 3: -1.86

With LINC00926, what was measured?
robust z-score, replicate 1: -0.785; robust z-score, replicate 2: -0.913; robust z-score, replicate 3: -0.616

What is on record for POC5-DT?
robust z-score, replicate 1: -0.615; robust z-score, replicate 2: -0.498; robust z-score, replicate 3: -0.673

What is on record for INSL3?
robust z-score, replicate 1: 0.172; robust z-score, replicate 2: -0.164; robust z-score, replicate 3: 0.0265

Which result is listed for EFCAB9?
robust z-score, replicate 1: -0.148; robust z-score, replicate 2: -0.609; robust z-score, replicate 3: -0.543

With THPO, what does the deposit list?
robust z-score, replicate 1: 3.86 (active); robust z-score, replicate 2: 2.72; robust z-score, replicate 3: 2.78

For GCNT2, how do the results read?
robust z-score, replicate 1: -1.8; robust z-score, replicate 2: -0.0125; robust z-score, replicate 3: -1.6

Targets above whose gene name begins with P or p (2):
PTPRF — robust z-score, replicate 1 = 0.158; robust z-score, replicate 2 = 0.333; robust z-score, replicate 3 = 0.479
POC5-DT — robust z-score, replicate 1 = -0.615; robust z-score, replicate 2 = -0.498; robust z-score, replicate 3 = -0.673
